Values from PubChem BioAssay AID1224826 (NIAID, 2016)
The deposit covers about 17,000 reagents; below is a random part of them. About 1,110 of all reagents (6.6%) count as active. 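Active means lowered or raised reporter signal; replicate intensities are raw and not normalised per plate.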 Not all columns of the deposit are shown.

Test: 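Knock-downs that raise or lower Tnf reporter signal after endotoxin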 (primary screen)
Cell system: RAW264.7 G9 macrophages from mouse bearing reporters for p65 (GFP) and the Tnf promoter (mCherry)
Reagent: siRNA pool against mouse genes, 100 nM
Timing: 16 h of LPS stimulation, after 2 days of siRNA transfection
Conditions: bacterial lipopolysaccharide (Salmonella minnesota R595), 10 ng/ml
Measured: 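Imaged Tnf reporter mCherry in nuclei, minus background, normalised per plate to the median and expressed as robust z-scores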
Reading the numbers: Tnf reporter robust z-score: higher = stronger Tnf promoter reporter signal after LPS
Call rule: 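Called active when robust z-score is at most -1.3, matching the median of the Tlr4 knock-down control, or over 3; control wells and wells with under 50 cells never active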
Meaning of the calls: active = Tnf reporter clearly lowered or raised; inactive = no clear change in Tnf reporter

With knock-down of Ufl1, the screen gave Tnf reporter robust z-score 1.57; fewer than 50 cells in well enough cells in well; inactive.
Depletion of Or2t48 came out at: Tnf reporter robust z-score -1.74; fewer than 50 cells in well enough cells in well; active.
Mrpl37 showed Tnf reporter robust z-score 0.31; fewer than 50 cells in well enough cells in well; inactive.
Itpr2 showed Tnf reporter robust z-score 1.24; fewer than 50 cells in well enough cells in well; inactive.
With knock-down of Emp1, the record shows Tnf reporter robust z-score 0.77; fewer than 50 cells in well enough cells in well; inactive.
Or5t5 scored Tnf reporter robust z-score 0.13; fewer than 50 cells in well enough cells in well; inactive.
Knock-down of Cyp11b2 gave: Tnf reporter robust z-score -0.62; fewer than 50 cells in well enough cells in well; inactive.
Knock-down of Wnt9b resulted in: Tnf reporter robust z-score -0.72; fewer than 50 cells in well enough cells in well; inactive.
Wnk4 showed Tnf reporter robust z-score -1.02; fewer than 50 cells in well enough cells in well; inactive.
Plcd3 scored Tnf reporter robust z-score 0.58; fewer than 50 cells in well enough cells in well; inactive.
Serping1 showed Tnf reporter robust z-score -0.86; fewer than 50 cells in well enough cells in well; inactive.
Hk3 scored fewer than 50 cells in well fewer than 50 cells per well; well left out of calls; inactive.
Knock-down of Gm5089 gave: Tnf reporter robust z-score 0.47; fewer than 50 cells in well enough cells in well; inactive.
With knock-down of Rmp24, the record shows Tnf reporter robust z-score 0.06; fewer than 50 cells in well enough cells in well; inactive.
A830018L16Rik scored Tnf reporter robust z-score 0.35; fewer than 50 cells in well enough cells in well; inactive.
Against C030016D13Rik, the entry reads Tnf reporter robust z-score -0.22; fewer than 50 cells in well enough cells in well; inactive.
Arv1 scored Tnf reporter robust z-score 0.18; fewer than 50 cells in well enough cells in well; inactive.
With knock-down of Rasgrp2, the screen gave Tnf reporter robust z-score -0.66; fewer than 50 cells in well enough cells in well; inactive.
After knock-down of Isoc2b, the record shows fewer than 50 cells in well fewer than 50 cells per well; well left out of calls; inactive.
Depletion of Ube2n gave: fewer than 50 cells in well fewer than 50 cells per well; well left out of calls; inactive.
After knock-down of Taf1, the screen gave Tnf reporter robust z-score 5.84; fewer than 50 cells in well enough cells in well; active.
Silencing of Tamalin gave: Tnf reporter robust z-score 0.06; fewer than 50 cells in well enough cells in well; inactive.
Pfdn2 scored Tnf reporter robust z-score 0.37; fewer than 50 cells in well enough cells in well; inactive.
After knock-down of Gpr137c, the screen gave Tnf reporter robust z-score -1.09; fewer than 50 cells in well enough cells in well; inactive.
For Fbxo2 the deposit lists Tnf reporter robust z-score -0.04; fewer than 50 cells in well enough cells in well; inactive.
Against Itprid2, the values are Tnf reporter robust z-score 1.35; fewer than 50 cells in well enough cells in well; inactive.
Adck1 scored Tnf reporter robust z-score 1.6; fewer than 50 cells in well enough cells in well; inactive.

A portion from the list above, for reference:
A830018L16Rik → Tnf reporter robust z-score = 0.35; fewer than 50 cells in well = enough cells in well; call = inactive
C030016D13Rik → Tnf reporter robust z-score = -0.22; fewer than 50 cells in well = enough cells in well; call = inactive
Arv1 → Tnf reporter robust z-score = 0.18; fewer than 50 cells in well = enough cells in well; call = inactive
Rasgrp2 → Tnf reporter robust z-score = -0.66; fewer than 50 cells in well = enough cells in well; call = inactive
